Measurements as given in doi:10.1101/2021.08.13.456027.
No constants are given. Whether binding was seen depends on the method and setting. Binding seen in cells or lysates may run through a third protein. Some entries that bind do so weakly or less than the wild type.

Amino acid sequences for entries named in this document (tags omitted). Residues count along the entry.
UniProt Q9D0K2, residues 40-520: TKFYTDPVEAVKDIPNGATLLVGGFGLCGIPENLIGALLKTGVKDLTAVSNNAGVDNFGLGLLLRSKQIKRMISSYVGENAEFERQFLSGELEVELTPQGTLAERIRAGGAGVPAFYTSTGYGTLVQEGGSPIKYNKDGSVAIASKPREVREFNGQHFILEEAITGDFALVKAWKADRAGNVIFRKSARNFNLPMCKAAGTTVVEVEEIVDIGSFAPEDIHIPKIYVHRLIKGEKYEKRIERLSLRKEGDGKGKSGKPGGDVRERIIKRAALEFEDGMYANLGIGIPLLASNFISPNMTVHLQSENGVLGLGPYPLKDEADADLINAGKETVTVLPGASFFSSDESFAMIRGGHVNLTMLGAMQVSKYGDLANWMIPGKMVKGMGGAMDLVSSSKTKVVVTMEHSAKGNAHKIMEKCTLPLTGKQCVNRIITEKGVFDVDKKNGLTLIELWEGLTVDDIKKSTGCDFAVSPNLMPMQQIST

Biological target: Succinyl-CoA:3-oxoacid-CoA transferase (SCOT1) (mouse (endogenous in heart tissue)) (UniProt Q9D0K2)
Assay: cross-linking

binding: binds
Substance: Succinyl-CoA:3-oxoacid-CoA transferase (SCOT1) (from UniProt Q9D0K2 40-520) (enzyme)
